Values of other authors, collected in patent US20070054859A1, “Estrogen receptor-related receptor alpha (ERRalpha) and cartilage formation” (priority 2001, published 2007).
At least one compound was matched to its structure with a doubt left.

System: C5.18 cells
Settings: C5.18 cultures, 10^−8M dexamethasone; cited from earlier work

C[C@@H]1C[C@H]2[C@@H]3CCC4=CC(=O)C=C[C@]4(C)[C@@]3(F)[C@@H](O)C[C@]2(C)[C@@]1(O)C(=O)CO [Dexamethasone, dexamethasone]
chondrogenesis and cartilage formation: stimulates chondrogenesis and cartilage formation
